Some results were stated once for a whole list of compounds, not compound by compound. For at least one compound, name, drawing or mass did not settle the structure.
Assay: Acid lability of the phosphate group of sugar phosphates
Type: physicochemical
Conditions: 0.05 N HCl, 100° C.
Protocol: A large amount of the radioactive product formed by the GalNAc kinase was isolated and purified on a DE-52 column, and this product was suspended in 0.05 N HCl and placed in a hot water bath at about 95° C. At various times, aliquots of the reaction mixture were removed, cooled, neutralized and passed through a column of DE-52 to determine whether the ^3H-GalNAc had lost its charge. Standards of Glc-6-P, Glc-1-P, GalNAc-1-P and GlcNAc-6-P were also subjected to the same hydrolysis conditions and were tested for their susceptibility to loss of phosphate.
The radioactive material was examined for purity and characterization by TLC chromatography on cellulose plates in 70% ethanol: 1 M ammonium acetate, pH 7.5 (7:3), or in 70% ethanol: 1 M ammonium acetate, pH 3.5 (7:3). The product was subjected to HPLC on the Dionex apparatus, using a column to separate various sugar phosphates from each other. Sugar-1-phosphates were distinguished from sugar-6-phosphates by their susceptibility to acid hydrolysis in 0.05 N HCl at 100° C. Sugar-1-phosphates are rapidly hydrolyzed whereas sugar-6-phosphates are stable. […]
The radioactive product from the ion exchange columns was suspended in 0.05 N HCl and heated at 100° C. for various periods of time. […] The amount of radioactivity that emerged in the wash was taken as a measure of removal of the phosphate group. […]

Compound | time in which almost all of the phosphate was removed [min]
CC(=O)N[C@H]1C(OP(=O)(O)O)O[C@H](CO)[C@H](O)[C@@H]1O (stereo partly drawn) [GalNAc-P, GalNAc-α-1-phosphate] | ≤ 10
CC(=O)N[C@H]1C(OP(=O)(O)O)O[C@H](CO)[C@@H](O)[C@@H]1O (some centres unmarked) [GlcNAc-1-phosphate] | ≤ 10

Reference: patent US6461844B1, “Liver GalNAc-1-phosphate kinase” (The Board of Trustees of the University of Arkansas, priority 1995, dated 2002)
